This test has as its system BDF1 mice, P388/ADR leukemia ip, median survival T/C. The test is described as follows: NCI In Vivo Anticancer Drug Screen. Data for tumor model P388 Leukemia resistant to Adriamycin; NSC 123127, Developed at Scr 06 and 41 (intraperitoneal) in B6D2F1 (BDF1) mice. The following applies: T/C endpoint: median survival time, higher T/C = longer survival. The procedure: The antitumor activity of compounds was measured in mice bearing transplantable tumors. Survival or tumor size were measured and the results are expressed as the measurement made in the treated group (T) divided by the measurement made in the vehicle treated control group (C). The tumor model used in this assay is P388 Leukemia resistant to Adriamycin; NSC 123127, Developed at Scr 06 and 41 (intraperitoneal) in B6D2F1 (BDF1) mice

Where [1] appears, read: dose: 2000.0 micrograms/kg/injection, schedule: Q04DX003 (ip), vehicle: saline.

The source of these data is PubChem BioAssay AID182 (DTP/NCI, 2004).

SMILES strings stand for the structures. The list does not hold the whole screen: it gathers tests that were run many times, whatever their T/C, doses with no T/C, and many T/C values between a quarter and a half above the control. Other doses and runs of a compound stand elsewhere. T/C gives the treated animals as a percentage of the vehicle group. Some entries give survivors of the animals treated and no T/C: the source files T/C as zero there, which appears to mark a toxic dose or a test without result, not a measured value. Some survivor counts are full or nearly so, which does not show that the dose was tolerated: survival well below the control is almost never listed, so the zero probably covers shortened survival too. Survivors were counted at the toxicity check, usually on the fifth day, unless a day is given; later deaths do not show. Schedule codes are those of the source, read here as Q, the interval in days (D) or hours (H), X, the number of doses. Some structures stand for samples that the source files as different forms (salt, stereo form or complex); doses refer to the form tested. Where survival is the endpoint, this PubChem deposit counts one and a half times the control or more as active, and values a quarter to a half above the control carry no call in these data; other NCI protocols may use other cut-offs. Some entries hold several experiments; their values stand side by side, smallest first. Some T/C values are followed by the survivors on the day toxicity was checked, most often the fifth; without a count, all were alive then.

`COC1C(O)C(C)OC(OC2C(Oc3cccc4c(O)c5c(=O)oc6ccc(C)c7c(=O)oc(c34)c5c67)OC(C)C(O)C2O)C1O` (stereo unspecified): the survivor count is 8 of 8 (dose: 72.0 mg/kg/injection, schedule: Q04DX003 (ip), vehicle: Klucel (hydroxypropylcellulose) (HPC)); 8 of 8 (dose: 120.0 mg/kg/injection, schedule: Q04DX003 (ip), vehicle: Klucel (hydroxypropylcellulose) (HPC)); 5 of 8 (dose: 200.0 mg/kg/injection, schedule: Q04DX003 (ip), vehicle: Klucel (hydroxypropylcellulose) (HPC)).
`O=C[C@@H](CO)O[C@H](C=O)n1cnc2c(=O)[nH]cnc21`: the T/C (dose: 108.0 mg/kg/injection, schedule: Q04DX003 (ip), vehicle: water) was 140 % of control. In addition, the survivor count (dose: 500.0 mg/kg/injection, schedule: Q04DX003 (ip), vehicle: water) is recorded as 0 of 8.
On to `COc1ccc(CC2C(=O)NC(C)C(=O)N(C)C3C(=O)N(C)C(Cc4ccc(O)c(c4)Oc4ccc(cc4)C3O)C(=O)NC(C)C(=O)NC(C)C(=O)N2C)cc1` (stereo unspecified), for which the survivor count is, setting by setting: (dose: 4.32 mg/kg/injection, schedule: Q04DX003 (ip), vehicle: other) 7 of 8; (dose: 7.2 mg/kg/injection, schedule: Q04DX003 (ip), vehicle: other) 2 of 8; (dose: 12.0 mg/kg/injection, schedule: Q04DX003 (ip), vehicle: other) 0 of 8; (dose: 20.0 mg/kg/injection, schedule: Q04DX003 (ip), vehicle: other) 0 of 8.
With `CC[C@](O)(C(=O)O)c1cc2n(c(=O)c1CO)Cc1cc3ccccc3nc1-2`, the survivor count (dose: 83.3 mg/kg/injection, schedule: Q04DX003 (ip), vehicle: saline) is listed as 6 of 8.
For `CC[C@H]1CN2CCc3cc(OC)c(OC)cc3[C@@H]2C[C@@H]1C[C@@H]1c2cc(OC)c(OC)cc2CCN1CCN(CCCl)CCCl`, the T/C by setting is: (dose: 12.0 mg/kg/injection, schedule: Q04DX003 (ip), vehicle: saline with Tween-80) 129 % of control; (dose: 20.0 mg/kg/injection, schedule: Q04DX003 (ip), vehicle: saline with Tween-80) 139 % of control.
Take `O=C1c2ccccc2C(=O)c2c(NCCNCCO)ccc(NCCNCCO)c21`: the survivor count (dose: 60.0 mg/kg/injection, schedule: Q04DX003 (ip), vehicle: saline + alcohol) is given as 8 of 8.
Regarding `CO[C@H]1C[C@](C)(O)Cc2cc3c(c(O)c21)C(=O)c1c(O)cc2c(c1C3=O)O[C@@H]1O[C@@]2(C)[C@H](O)[C@@H](N(C)C)[C@@H]1O`, the survivor count (dose: 83.3 mg/kg/injection, schedule: Q04DX003 (ip), vehicle: lactate) is 4 of 8.
`CC(C)CCCCCCCCCCCCC(=O)NCC(=O)NC1C(C)OC(Nc2ncnc3nc[nH]c23)C(O)C1O` (stereo unspecified): the T/C runs as follows: (dose: 432.0 micrograms/kg/injection, schedule: Q04DX003 (ip), vehicle: saline) 128 % of control; (dose: 720.0 micrograms/kg/injection, schedule: Q04DX003 (ip), vehicle: saline) 137 % of control [7 of 8 alive]; (dose: 1200.0 micrograms/kg/injection, schedule: Q04DX003 (ip), vehicle: saline) 129 % of control [7 of 8 alive]; under setting [1], 149 % of control.
Regarding `CC[C@]1(O)C[C@H](OC2CC(N(C)C)C(OC3CC(O)C(O)C(C)O3)C(C)O2)c2c(cc3c(c2O)C(=O)c2c(O)ccc(O)c2C3=O)[C@H]1C(=O)OC` (stereo partly specified), where the note is “dose: 16.0 mg/kg/injection, schedule: Q04DX003 (ip), vehicle: other”, the survivor count was 8 of 8.
Turning to `COc1cc([C@@H]2c3cc4c(cc3[C@@H](OC3OC5COC(C)OC5C(O)C3O)[C@H]3COC(=O)[C@H]23)OCO4)cc(OC)c1O` (stereo partly specified), under “dose: 83.3 mg/kg/injection, schedule: Q04DX003 (ip), vehicle: Klucel (hydroxypropylcellulose) (HPC)”, the survivor count was 8 of 8.
Take `CC[C@@]1(O)C[C@H](OC2CC(N(C)C)C(OC3CC(O)C(OC4CCC(=O)C(C)O4)C(C)O3)C(C)O2)c2c(cc3c(c2O)C(=O)c2c(O)ccc(O)c2C3=O)[C@H]1C(=O)OC` (stereo partly specified): the T/C is 130 % of control (dose: 1.73 mg/kg/injection, schedule: Q04DX003 (ip), vehicle: other); 139 % of control (dose: 1.8 mg/kg/injection, schedule: Q01DX009 (ip), vehicle: water); 138 % of control (dose: 2.88 mg/kg/injection, schedule: Q04DX003 (ip), vehicle: other); 139 and 141 % of control (dose: 2.88 mg/kg/injection, schedule: Q04DX003 (ip), vehicle: water); 141 and 147 % of control (dose: 4.8 mg/kg/injection, schedule: Q04DX003 (ip), vehicle: water). Moreover, the survivor count is recorded as 8 of 8 (dose: 8.0 mg/kg/injection, schedule: Q04DX003 (ip), vehicle: other); 8 of 8 (dose: 8.0 mg/kg/injection, schedule: Q04DX003 (ip), vehicle: water); 8 of 8 (dose: 10.0 mg/kg/injection, schedule: Q04DX003 (ip), vehicle: water); 8 of 8 (dose: 13.33 mg/kg/injection, schedule: Q04DX003 (ip), vehicle: water).
On to `O=P1(N(CCCl)CCCl)NCCCO1` (stereo unspecified), for which the survivor count (dose: 300.0 mg/kg/injection, schedule: Q01DX001 (ip), vehicle: saline) is listed as 8 of 8 and the survivor count (dose: 500.0 mg/kg/injection, schedule: Q01DX001 (ip), vehicle: saline) is listed as 0 of 8.
For the compound `CO[C@H]1Nc2c(ccc(C)c2O)C(=O)N2C=C(/C=C/C(N)=O)C[C@@H]12`, the T/C (dose: 151.0 micrograms/kg/injection, schedule: Q04DX003 (ip), vehicle: saline + alcohol) was 141 % of control. The survivor count (dose: 700.0 micrograms/kg/injection, schedule: Q04DX003 (ip), vehicle: saline + alcohol) is reported as 8 of 8 and the survivor count (dose: 1000.0 micrograms/kg/injection, schedule: Q04DX003 (ip), vehicle: saline + alcohol) is on record as 3 of 8.
Take `COc1cc(O)c2c(c1)C(=O)c1cc3c(c(O)c1C2=O)C(OC1OC(C)C(O)C(O)C1OC)C(OC)C(C)(O)C3=O` (stereo unspecified): the survivor count (dose: 300.0 mg/kg/injection, schedule: Q04DX003 (ip), vehicle: Klucel (hydroxypropylcellulose) (HPC)) was 7 of 8 and the survivor count (dose: 500.0 mg/kg/injection, schedule: Q04DX003 (ip), vehicle: Klucel (hydroxypropylcellulose) (HPC)) is 8 of 8.
As for `COc1cccc2c1C(=O)c1c(O)c3c(c(O)c1C2=O)C[C@@](O)(C(=O)CO)C[C@@H]3OC1CC([N+](C)(C)C)C(O)C(C)O1` (stereo partly specified), the survivor count (dose: 24.0 mg/kg/injection, schedule: Q04DX003 (ip), vehicle: water) is recorded as 6 of 8 and the survivor count (dose: 40.0 mg/kg/injection, schedule: Q04DX003 (ip), vehicle: water) is 1 of 8.
For the compound `COc1cc(NS(C)(=O)=O)ccc1Nc1c2ccccc2nc2ccccc12`, the T/C is, setting by setting: (dose: 6.0 mg/kg/injection, schedule: Q04DX003 (ip), vehicle: other) 134 % of control; (dose: 10.0 mg/kg/injection, schedule: Q04DX003 (ip), vehicle: other) 129 % of control. Further, the survivor count runs as follows: (dose: 15.0 mg/kg/injection, schedule: Q04DX003 (ip), vehicle: clinical formulation) 7 of 8; (dose: 16.7 mg/kg/injection, schedule: Q04DX003 (ip), vehicle: other) 7 of 8; (dose: 25.0 mg/kg/injection, schedule: Q04DX003 (ip), vehicle: clinical formulation) 4 of 8.
Regarding `N[C@H](C(=O)O)[C@@H]1CC(Cl)=NO1`, the T/C (dose: 21.6 mg/kg/injection, schedule: Q04DX003 (ip), vehicle: saline) was 130 % of control; the T/C (dose: 60.0 mg/kg/injection, schedule: Q04DX003 (ip), vehicle: saline) was 147 % of control; the T/C (dose: 100.0 mg/kg/injection, schedule: Q04DX003 (ip), vehicle: saline) is 147 % of control.
Consider `CCCCC(=O)OCC(=O)[C@]1(O)Cc2c(O)c3c(c(O)c2[C@@H](OC2CC(NC(=O)C(F)(F)F)C(O)C(C)O2)C1)C(=O)c1c(OC)cccc1C3=O` (stereo partly specified), for which the T/C (dose: 36.0 mg/kg/injection, schedule: Q01DX004 (ip), vehicle: saline with Tween-80) was 130 % of control. Besides, the survivor count (dose: 60.0 mg/kg/injection, schedule: Q01DX004 (ip), vehicle: saline with Tween-80) was 7 of 8.
Turning to `CC[C@]1(O)C[C@H]2CN(CCc3c([nH]c4ccccc34)[C@@](C(=O)OC)(c3cc4c(cc3OC)N(C=O)[C@H]3[C@@](O)(C(=O)OC)[C@H](OC(C)=O)[C@]5(CC)C=CCN6CC[C@]43[C@@H]65)C2)C1`, where the note is “dose: 1.08 mg/kg/injection, schedule: Q04DX003 (ip), vehicle: saline”, the T/C is 132 % of control. In addition, the survivor count was 8 of 8 (dose: 2.0 mg/kg/injection, schedule: Q04DX003 (ip), vehicle: saline) and 8 of 8 under setting [1].
